The reference is the same well before dosing, and untreated signal decays as well.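 Fibroblast labels name human fibroblasts: mostly primary ones from tissues such as uterus (C12385, HUF), lung (H6013), bone (Hs27A), adrenal (HADF) and skin (WS1), plus mammary HMF and breast cancer-associated Hs343T. The cancer cells are basal-like or mesenchymal-like triple-negative breast cancer lines. The paper calls a changed response a hit when it shifts by more than 3x the replicate standard deviation. The tissue of the other fibroblasts is not given here.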 Numbered stars: 1 amine (or outer) side, 2 acyl side, 3 side chain; on linkers, the order of the positions; unused ones are H or OH. Bridge positions count the residues as written; N and C are the ends. Square brackets hold non-standard residues; d marks the D form. Peptide text beside a SMILES is read from it. I, II: the chains in the order shown. Actinocin(9to1) = Cc1c2oc3c(C)ccc(C(=O)[*:1])c3nc-2c(C(=O)[*:2])c(N)c1=O; NMeV = CN[C@H](C(=O)O)C(C)C; Sar = CNCC(=O)O
Test system: MDAMB231
Test: relative JC-1 red fluorescence (viability) vs pre-drug, coculture with fibroblast (fraction); higher = more viable cancer cells
Description: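 JC-1 labelled TNBC cells cocultured 1:1 (1,500 cells each) with CellTrace Violet stained primary or stromal fibroblasts in 384-well plates in FluoroBrite medium, treated with one of 42 anticancer drugs at 0.1, 1, 10 or 100 uM. JC-1 red fluorescence (mitochondrial integrity in cancer cells only) was read by plate reader every 8 h for 72 h. Values are normalised to each well's pre-drug value. The stock of one drug was tenfold lower, so its dose labels may be too high.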

Cc1c2oc3c(C)ccc(C(=O)N[C@@H]4C(=O)N[C@H](C(C)C)C(=O)N5CCC[C@H]5C(=O)N(C)CC(=O)N(C)[C@@H](C(C)C)C(=O)O[C@@H]4C)c3nc-2c(C(=O)N[C@@H]2C(=O)N[C@H](C(C)C)C(=O)N3CCC[C@H]3C(=O)N(C)CC(=O)N(C)[C@@H](C(C)C)C(=O)O[C@@H]2C)c(N)c1=O [Dactinomycin] (I: T[dV]P[Sar][NMeV] / II: T[dV]P[Sar][NMeV]; ester I:1-I:C, II:1-II:C; linker I:N-II:N via Actinocin(9to1))
relative JC-1 red fluorescence
Conditions	8 h	16 h	24 h	32 h	40 h	48 h	56 h	64 h	72 h
0.1 µM, coculture fibroblast: C12385	0.7869	0.71931	0.795	0.698	0.656	0.649	0.637	0.678	0.69
0.1 µM, coculture fibroblast: H6013	0.858	0.82	0.7863	0.769	0.7302	0.7242	0.7154	0.6997	0.6634
0.1 µM, coculture fibroblast: H6019	0.828	0.754	0.805	0.752	0.738	0.76	0.751	0.785	0.778
0.1 µM, coculture fibroblast: H6076	0.828	0.7828	0.781	0.782	0.774	0.769	0.787	0.791	0.798
0.1 µM, coculture fibroblast: H6231	0.851	0.772	0.724	0.671	0.627	0.604	0.573	0.5636	0.5527
0.1 µM, coculture fibroblast: HADF	0.828	0.7963	0.762	0.741	0.709	0.691	0.674	0.664	0.624
0.1 µM, coculture fibroblast: HCFa	0.862	0.8159	0.772	0.744	0.708	0.689	0.674	0.659	0.627
0.1 µM, coculture fibroblast: HCPF	0.8976	0.818	0.769	0.746	0.697	0.662	0.635	0.614	0.598
0.1 µM, coculture fibroblast: HHSteC	0.868	0.848	0.824	0.793	0.77	0.755	0.733	0.734	0.713
0.1 µM, coculture fibroblast: HMF	0.849	0.78	0.738	0.709	0.677	0.644	0.6151	0.6126	0.603
0.1 µM, coculture fibroblast: HPFa	0.9036	0.889	0.848	0.815	0.8	0.78	0.731	0.718	0.697
0.1 µM, coculture fibroblast: HUF	0.807	0.716	0.76	0.642	0.618	0.633	0.626	0.675	0.678
0.1 µM, coculture fibroblast: Hs5	0.8329	0.788	0.778	0.7518	0.746	0.715	0.715	0.71	0.712
0.1 µM, coculture fibroblast: Hs27A	0.8544	0.8257	0.808	0.798	0.762	0.763	0.747	0.7425	0.706
0.1 µM, coculture fibroblast: Hs343T	0.817	0.728	0.677	0.651	0.617	0.583	0.5516	0.546	0.541
0.1 µM, coculture fibroblast: WS1	0.737	0.664	0.714	0.608	0.573	0.581	0.562	0.606	0.609
1 µM, coculture fibroblast: C12385	0.733	0.7099	0.682	0.664	0.601	0.577	0.546	0.549	0.521
1 µM, coculture fibroblast: H6013	0.8661	0.822	0.7907	0.758	0.7166	0.685	0.656	0.622	0.568
1 µM, coculture fibroblast: H6019	0.762	0.6763	0.675	0.63	0.605	0.602	0.58	0.603	0.59
1 µM, coculture fibroblast: H6076	0.846	0.7911	0.7509	0.7343	0.6966	0.6683	0.658	0.653	0.649
1 µM, coculture fibroblast: H6231	0.896	0.815	0.781	0.754	0.727	0.707	0.679	0.671	0.65
1 µM, coculture fibroblast: HADF	0.8561	0.8379	0.817	0.79034	0.752	0.6974	0.6699	0.634	0.5672
1 µM, coculture fibroblast: HCFa	0.867	0.826	0.807	0.787	0.766	0.74	0.711	0.679	0.633
1 µM, coculture fibroblast: HCPF	0.887	0.82113	0.7774	0.7582	0.722	0.686	0.6538	0.628	0.63
1 µM, coculture fibroblast: HHSteC	0.8969	0.88	0.846	0.83	0.793	0.767	0.715	0.693	0.652
1 µM, coculture fibroblast: HMF	0.83619	0.796	0.762	0.74	0.738	0.727	0.712	0.713	0.716
1 µM, coculture fibroblast: HPFa	0.919	0.886	0.841	0.796	0.782	0.752	0.686	0.652	0.613
1 µM, coculture fibroblast: HUF	0.829	0.7301	0.738	0.652	0.611	0.611	0.577	0.572	0.572
1 µM, coculture fibroblast: Hs5	0.736	0.846	0.845	0.821	0.786	0.746	0.712	0.686	0.6665
1 µM, coculture fibroblast: Hs27A	0.8618	0.814	0.786	0.779	0.715	0.6427	0.6096	0.592	0.546
1 µM, coculture fibroblast: Hs343T	0.827	0.767	0.733	0.711	0.679	0.653	0.613	0.593	0.566
1 µM, coculture fibroblast: WS1	0.744	0.713	0.69	0.678	0.652	0.63	0.596	0.595	0.587

Reference: the supplement of paper PMC6078165
